Test results taken from PubChem BioAssay AID540276 (National Center for Advancing Translational Sciences (NCATS), 2011).
The whole screen tested about 300,000 compounds, of which about 5,400 (1.8%) were called active. The inconclusive results got no clear call from the source; some entries with a clear call stand among them for comparison. Calls come from the whole dose curve; tested in HEK293 cells. Where the call is inconclusive, the potency comes from a doubtful curve fit.

test: qHTS for inhibitors of binding or entry into cells for Marburg Virus; settings: Marburg virus pseudotyped entry inhibition, cell reporter; series mostly up to 37.8 µM
Potency is the fitted concentration of half-maximal effect.

Row | SMILES | Potency
1 | Cc1ccccc1-c1nnc(CN2CCN(c3ccccn3)CC2)o1 | inconclusive: 2.51 µM [inhibitor, single point]
2 | CN1C(=O)C(Cl)(Cl)C(=O)c2ccccc21 | inconclusive: 35.5 µM [inhibitor, single point]
3 | Cn1cc(-c2ccccc2)cc(C#N)c1=O | inconclusive: 3.98 µM [inhibitor, single point]
4 | CCOCN(C(=O)CCl)c1c(C)cccc1CC | inconclusive: 4.47 µM [inhibitor, single point]
5 | CC1(C)N([O-])C2=C(c3ccccc3C2=O)[N+](=O)C1(C)C | inconclusive: 0.126 µM [inhibitor, full curve, poor fit]
6 | CCCCC(=O)Nc1ccc(C(=O)Nc2ccc(S(=O)(=O)Nc3ccc(C)cc3)cc2)cc1 | inconclusive: 20.6 µM [inhibitor, single point]
7 | CC1CCCN(CCOCCOc2ccc(Br)cc2Cl)C1 (stereo not given) | active: 15.8 µM
8 | CCOc1ccc(C(=O)c2oc3ccccc3c2NC(=O)Cc2coc3cc(C)cc(C)c23)cc1 | inactive
9 | CCOc1[nH]c(/N=C/c2ccco2)c(C#N)c1C#N | inactive
10 | COc1ccc(CCC(=O)NCc2ccco2)cc1 | inconclusive: 7.94 µM [inhibitor, partial curve, poor fit]
11 | Cc1ccc(C2CC(=O)Nc3cc4c(cc32)OCCO4)cc1 (stereo not given) | inconclusive: 20 µM [inhibitor, single point]
12 | CCCCC1CCC(C(=O)NC2CCS(=O)(=O)C2)CC1 (stereo not given) | inconclusive: 0.0891 µM [inhibitor, full curve, poor fit]
13 | COc1ccc2nc(NCCO)[nH]c2c1 | inconclusive: 3.16 µM [activator, single point]
14 | CCN(CC)CCN(Cc1cc2cc(C)ccc2[nH]c1=O)C(=S)NCc1ccco1 | inconclusive: 12.6 µM [inhibitor, single point]
15 | CC(C)(C)N(Cc1ccccc1)C(=O)c1cccs1 | inconclusive: 0.316 µM [inhibitor, full curve, poor fit]
16 | Cc1ccc(OC[C@H](O)[C@H](C)NC(C)C)c2c1CCC2 | active: 15.8 µM
17 | Cc1ccc(C(=O)N2NC(c3ccccc3F)C3C(=O)N(c4cccc(C)c4)C(=O)C32)cc1 (stereo not given) | inconclusive: 0.0146 µM [activator, full curve, poor fit]
18 | Cc1cc2oc(C(=O)N(Cc3ccccc3F)C3CCS(=O)(=O)C3)c(C)c2cc1Cl (stereo not given) | inconclusive: 25.1 µM [inhibitor, partial curve, poor fit]
19 | COc1ccc(C(=O)c2ccccc2)c2c(O)ccc(C(=O)c3ccccc3)c12 | active: 14.1 µM
20 | CC(C)c1ccc(NC(=O)CN2CCN(C(=O)C3CCCO3)CC2)cc1 (stereo not given) | inconclusive: 0.398 µM [activator, single point]
21 | Cc1nc(NC(=O)c2ccc([N+](=O)[O-])cc2Cl)sc1C(=O)N(C)C | inactive
22 | CC[N+](C)(CC)CCCOC(=O)C(O)(c1ccccc1)C1CCCCC1 (stereo not given) | inactive
23 | COc1ccc(Cc2c(O)[nH]c(=S)[nH]c2=O)cc1 | inactive

Row | SMILES | Potency
24 | Cc1ccc(C(c2nnnn2CS(=O)(=O)c2ccc(C)cc2)N2CCC(C)CC2)cc1 (stereo not given) | inconclusive: 2.24 µM [inhibitor, full curve, poor fit]
25 | C=CCOC(=O)N[C@@H](c1cccs1)C(C(C)=O)C(C)=O | inconclusive: 0.0013 µM [inhibitor, full curve, poor fit]
26 | Cc1nc2ccc(N)nc2nc1C | inactive
27 | O=C(CSc1n[nH]c(-c2ccccc2O)n1)N1CCOCC1 | inactive
28 | Cc1cccc(N2CC(C(=O)Nc3nnc(SCC(=O)Nc4cc(C)on4)s3)CC2=O)c1 (stereo not given) | inactive
29 | CCCNC(=O)C(=O)Nc1ccc(N(C)C)cc1 | inconclusive: 1.78 µM [activator, partial curve, poor fit]
30 | CC(C)NS(=O)(=O)c1ccc(CCC(=O)N2CCCC2)cc1 | inconclusive: 6.31 µM [activator, partial curve, poor fit]
31 | COc1ccc(N2C(=O)CC2(/C=C/c2ccccc2OC)C(=O)NC2CCCC2)cc1 (stereo not given) | inactive
32 | Cc1nc2ccc(C(=O)Nc3ccc4nc[nH]c4c3)cc2[nH]1 | inconclusive: 35.5 µM [inhibitor, single point]
33 | COc1nc(C)ccc1-c1noc(-c2ccccn2)n1 | inconclusive: 6.51 µM [inhibitor, partial curve]
34 | COc1ccc(C)cc1NC(=O)c1ccc(NS(=O)(=O)c2cccc3cccnc23)cc1 | inconclusive: 17.8 µM [inhibitor, single point]
35 | CCCSc1nnc2c(n1)OC(c1sccc1C)Nc1ccccc1-2 (stereo not given) | inconclusive: 1 µM [activator, partial curve, poor fit]
36 | CCOc1ncccc1C(=O)Nc1ccc2c(c1)OCO2 | inactive
37 | Cc1cc2c(NC3CCCCC3)ncnc2s1 | inconclusive: 31.6 µM [inhibitor, single point]
38 | Clc1ccc(-c2nnc(C34CC5CC(CC(C5)C3)C4)o2)cn1 | inconclusive: 3.16 µM [inhibitor, single point]
39 | COC(=O)[C@@]1(Cc2ccc(F)cc2)[C@H]2c3cc(C(=O)N(C)C)n(Cc4ccccc4)c3C[C@H]2CN1C(=O)c1ccccc1 | active: 13 µM
40 | CC(C)=C(NC(=O)c1ccccc1Br)C(=O)NCCc1nc2ccccc2[nH]1 | inactive
41 | O=S(=O)(Cc1ccccc1)N1CCN(c2ccccc2)CC1 | inconclusive: 0.0058 µM [inhibitor, full curve, poor fit]
42 | Cc1cc(NC(=O)COc2ccccc2C(N)=O)no1 | inconclusive: 2.82 µM [activator, single point]
43 | COc1cc(C2C=C(c3cccs3)Nc3ncnn32)cc(OC)c1OC (stereo not given) | inconclusive: 2.24 µM [inhibitor, full curve]
44 | O=S(=O)(NC1CCCCC1)c1cccc(-c2nnc(-c3ccccc3)o2)c1 | inconclusive: 29.1 µM [inhibitor, partial curve, poor fit]
45 | CCCN1C2CCCC1CC(NC(=O)c1ccc(F)cc1)C2 (stereo not given) | inconclusive: 0.259 µM [inhibitor, single point]

Quoted from the listing.
Potency with C=CCOC(=O)N[C@@H](c1cccs1)C(C(C)=O)C(C)=O reads inconclusive: 0.0013 µM [inhibitor, full curve, poor fit]
Potency with Cc1cc2c(NC3CCCCC3)ncnc2s1 reads inconclusive: 31.6 µM [inhibitor, single point]
Potency with CCCSc1nnc2c(n1)OC(c1sccc1C)Nc1ccccc1-2 (stereo not given) reads inconclusive: 1 µM [activator, partial curve, poor fit]
